From publication PMC10688137 come the findings set out here.

Sequences of proteins named here, by UniProt entry; tags and fusion partners are left off. Residues count along the entry.
UniProt P19438, residues 30-455: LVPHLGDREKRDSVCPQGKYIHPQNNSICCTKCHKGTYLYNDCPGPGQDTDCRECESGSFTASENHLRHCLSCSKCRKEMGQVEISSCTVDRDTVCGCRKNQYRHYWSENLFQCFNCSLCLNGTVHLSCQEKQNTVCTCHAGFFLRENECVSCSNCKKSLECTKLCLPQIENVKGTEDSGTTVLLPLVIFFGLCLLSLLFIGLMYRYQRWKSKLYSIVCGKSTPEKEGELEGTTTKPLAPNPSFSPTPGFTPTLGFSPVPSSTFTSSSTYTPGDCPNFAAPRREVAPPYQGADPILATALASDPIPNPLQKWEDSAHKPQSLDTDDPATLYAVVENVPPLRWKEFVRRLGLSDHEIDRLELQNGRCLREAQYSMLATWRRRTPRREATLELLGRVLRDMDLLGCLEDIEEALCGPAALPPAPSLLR

This experiment concerns the target T1, GST-tagged SCEL recombinant protein (human) (UniProt O95171).
T1 sequence: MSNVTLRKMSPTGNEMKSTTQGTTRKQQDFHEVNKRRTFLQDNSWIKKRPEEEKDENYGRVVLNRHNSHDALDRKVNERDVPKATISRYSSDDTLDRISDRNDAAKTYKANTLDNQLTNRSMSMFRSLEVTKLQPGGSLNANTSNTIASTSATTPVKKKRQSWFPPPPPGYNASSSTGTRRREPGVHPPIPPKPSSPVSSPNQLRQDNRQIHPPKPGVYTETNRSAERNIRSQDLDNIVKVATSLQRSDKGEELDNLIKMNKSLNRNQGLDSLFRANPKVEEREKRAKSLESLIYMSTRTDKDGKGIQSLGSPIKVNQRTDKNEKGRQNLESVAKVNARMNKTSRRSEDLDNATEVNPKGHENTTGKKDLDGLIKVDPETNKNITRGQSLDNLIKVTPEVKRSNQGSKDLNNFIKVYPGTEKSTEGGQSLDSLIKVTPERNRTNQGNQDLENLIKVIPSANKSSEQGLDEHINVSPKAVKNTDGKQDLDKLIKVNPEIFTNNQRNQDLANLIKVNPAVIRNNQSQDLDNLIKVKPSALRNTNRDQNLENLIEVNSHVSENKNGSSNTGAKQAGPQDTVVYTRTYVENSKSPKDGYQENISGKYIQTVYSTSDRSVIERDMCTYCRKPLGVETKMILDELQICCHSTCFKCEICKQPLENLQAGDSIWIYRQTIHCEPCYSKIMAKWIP
Nature of the experiment: pull-down; 5 ug purified GST-SCEL on Glutathione Sepharose 4B; 50 uL beads in 500 uL control lysate or His-tagged TNFR1-expressing cell lysate (25 mM Tris-HCl, 150 mM NaCl, 10% glycerol, 1% NP40) at 4 C overnight; western blotting; only the target purified.

Results are given in words; binding and its absence hold for the method and conditions named. In cells and extracts the contact can be indirect. Some binding calls cover weakened binding; strength is not graded here. Where a sequence is shown, tags or fusion partners need not be part of it.

With “His-tagged TNFR1 (from UniProt P19438 30-455) (receptor)”, the binding entry is “binds”.
